Source: patent US11780893B2, “Kv1.3 blockers” (Zealand Pharma A/S, priority 2019, dated 2023)
Some of these results come from one statement about several compounds together. Bridge positions count the residues as written; N and C are the ends. Square brackets hold non-standard residues; d marks the D form. Peptide text beside a SMILES is read from it. Phe(4-NH2) = Nc1ccc(C[C@H](N)C(=O)O)cc1; Nle = CCCC[C@H](N)C(=O)O; Abu = CC[C@H](N)C(=O)O

By UniProt entry, the sequences of proteins in these tests, tags left out.
UniProt P22001, whole entry: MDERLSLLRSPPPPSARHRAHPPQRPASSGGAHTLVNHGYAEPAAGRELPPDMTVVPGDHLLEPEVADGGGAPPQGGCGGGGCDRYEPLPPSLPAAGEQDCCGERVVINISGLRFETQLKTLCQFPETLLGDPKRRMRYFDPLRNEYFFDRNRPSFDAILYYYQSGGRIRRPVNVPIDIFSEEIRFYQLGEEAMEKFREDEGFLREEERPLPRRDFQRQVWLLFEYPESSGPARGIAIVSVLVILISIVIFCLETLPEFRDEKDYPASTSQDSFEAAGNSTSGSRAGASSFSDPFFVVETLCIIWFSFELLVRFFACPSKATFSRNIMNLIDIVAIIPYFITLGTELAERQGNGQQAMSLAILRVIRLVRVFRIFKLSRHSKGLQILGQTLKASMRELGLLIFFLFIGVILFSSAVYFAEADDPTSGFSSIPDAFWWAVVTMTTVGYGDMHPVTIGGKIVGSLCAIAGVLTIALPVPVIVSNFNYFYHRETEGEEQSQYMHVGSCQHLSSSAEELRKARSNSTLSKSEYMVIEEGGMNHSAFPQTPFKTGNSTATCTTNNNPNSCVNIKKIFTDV

Molecular target: T1, human Kv1.3 voltage-gated K+ channel (Homo sapiens, UniProt P22001)
T1 construct: host or cells: CHO-DUKX
Assay type: cell-based

| SMILES | IC50 |
| --- | --- |
| CCCC[C@@H]1NC(=O)[C@@H]2CSSC[C@H](NC(=O)[C@H](CCCNC(=N)N)NC(=O)[C@H](CCCC)NC(=O)[C@H](CC(=O)O)NC(=O)[C@H](CCCC)NC(=O)[C@@H](N)Cc3c[nH]cn3)C(=O)N[C@@H](CO)C(=O)N[C@@H](C)C(=O)N[C@@H](CO)C(=O)N[C@@H](C(C)C)C(=O)N[C@@H](CCC(=O)O)C(=O)N[C@H]3CSSC[C@H](NC(=O)[C@H](CCCCN)NC(=O)[C@H](CCCCN)NC(=O)[C@H](CC(N)=O)NC1=O)C(=O)N[C@@H](CCCCN)C(=O)N[C@H](C(=O)N[C@@H](Cc1ccc(O)cc1)C(=O)N1CCC[C@H]1C(=O)N[C@@H](CCCNC(=N)N)C(N)=O)CSSC[C@H](NC(=O)[C@H](CCCCN)NC(=O)[C@H](CCC(N)=O)NC(=O)[C@H](CCCCN)NC3=O)C(=O)N[C@@H](CC(C)C)C(=O)N[C@@H](CCCCN)C(=O)N[C@@H](C)C(=O)N[C@@H]([C@@H](C)CC)C(=O)NCC(=O)N[C@@H](CO)C(=O)N[C@@H]([C@@H](C)CC)C(=O)N[C@@H](Cc1ccccc1)C(=O)NCC(=O)N[C@@H](CCCCN)C(=O)N2 [Compound 64] (H-H[Nle]D[Nle]RCSASVECKQKCLKAIGSIFGKC[Nle]NKKCKCYPR-NH2; disulfide 6-27, 12-32, 16-34) | ≤ 0.15 nM |
| CCCC[C@@H]1NC(=O)[C@@H]2CSSC[C@H](NC(=O)[C@H](CCCNC(=N)N)NC(=O)[C@H](CCCC)NC(=O)[C@H](CC(=O)O)NC(=O)[C@H](CCCC)NC(=O)[C@@H](N)Cc3ccc(O)cc3)C(=O)N[C@@H](CO)C(=O)N[C@@H](C)C(=O)N[C@@H](CO)C(=O)N[C@@H](C(C)C)C(=O)N[C@@H](CCC(=O)O)C(=O)N[C@H]3CSSC[C@H](NC(=O)[C@H](CCCCN)NC(=O)[C@H](CCCCN)NC(=O)[C@H](CC(N)=O)NC1=O)C(=O)N[C@@H](CCCCN)C(=O)N[C@H](C(=O)N[C@@H](Cc1ccc(O)cc1)C(=O)N1CCC[C@H]1C(=O)N[C@@H](CCCNC(=N)N)C(N)=O)CSSC[C@H](NC(=O)[C@H](CCCCN)NC(=O)[C@H](CCC(N)=O)NC(=O)[C@H](CCCCN)NC3=O)C(=O)N[C@@H](CC(C)C)C(=O)N[C@@H](CCCCN)C(=O)N[C@@H](C)C(=O)N[C@@H]([C@@H](C)CC)C(=O)NCC(=O)N[C@@H](CO)C(=O)N[C@@H]([C@@H](C)CC)C(=O)N[C@@H](Cc1ccccc1)C(=O)NCC(=O)N[C@@H](CCCCN)C(=O)N2 [Compound 65] (H-Y[Nle]D[Nle]RCSASVECKQKCLKAIGSIFGKC[Nle]NKKCKCYPR-NH2; disulfide 6-27, 12-32, 16-34) | ≤ 0.15 nM |
| CCCC[C@@H]1NC(=O)[C@@H]2CSSC[C@H](NC(=O)[C@H](CCCNC(=N)N)NC(=O)[C@H](CCCC)NC(=O)[C@H](CC(=O)O)NC(=O)[C@H](CCCC)NC(=O)[C@@H](N)CO)C(=O)N[C@@H](CO)C(=O)N[C@@H](C)C(=O)N[C@@H](CO)C(=O)N[C@@H](C(C)C)C(=O)N[C@@H](CCC(=O)O)C(=O)N[C@H]3CSSC[C@H](NC(=O)[C@H](CCCCN)NC(=O)[C@H](CCCCN)NC(=O)[C@H](CC(N)=O)NC1=O)C(=O)N[C@@H](CCCCN)C(=O)N[C@H](C(=O)N[C@@H](Cc1ccc(O)cc1)C(=O)N1CCC[C@H]1C(=O)N[C@@H](CCCNC(=N)N)C(N)=O)CSSC[C@H](NC(=O)[C@H](CCCCN)NC(=O)[C@H](CCC(N)=O)NC(=O)[C@H](CCCCN)NC3=O)C(=O)N[C@@H](CC(C)C)C(=O)N[C@@H](CCCCN)C(=O)N[C@@H](C)C(=O)N[C@@H]([C@@H](C)CC)C(=O)NCC(=O)N[C@@H](CO)C(=O)N[C@@H]([C@@H](C)CC)C(=O)N[C@@H](Cc1ccccc1)C(=O)NCC(=O)N[C@@H](CCCCN)C(=O)N2 [Compound 66] (H-S[Nle]D[Nle]RCSASVECKQKCLKAIGSIFGKC[Nle]NKKCKCYPR-NH2; disulfide 6-27, 12-32, 16-34) | ≤ 0.15 nM |
| CCCC[C@@H]1NC(=O)[C@@H]2CSSC[C@H](NC(=O)[C@H](CCCNC(=N)N)NC(=O)[C@H](CCCC)NC(=O)[C@H](CC(=O)O)NC(=O)[C@H](CCCC)NC(=O)[C@@H](N)C(C)C)C(=O)N[C@@H](CO)C(=O)N[C@@H](C)C(=O)N[C@@H](CO)C(=O)N[C@@H](C(C)C)C(=O)N[C@@H](CCC(=O)O)C(=O)N[C@H]3CSSC[C@H](NC(=O)[C@H](CCCCN)NC(=O)[C@H](CCCCN)NC(=O)[C@H](CC(N)=O)NC1=O)C(=O)N[C@@H](CCCCN)C(=O)N[C@H](C(=O)N[C@@H](Cc1ccc(O)cc1)C(=O)N1CCC[C@H]1C(=O)N[C@@H](CCCNC(=N)N)C(N)=O)CSSC[C@H](NC(=O)[C@H](CCCCN)NC(=O)[C@H](CCC(N)=O)NC(=O)[C@H](CCCCN)NC3=O)C(=O)N[C@@H](CC(C)C)C(=O)N[C@@H](CCCCN)C(=O)N[C@@H](C)C(=O)N[C@@H]([C@@H](C)CC)C(=O)NCC(=O)N[C@@H](CO)C(=O)N[C@@H]([C@@H](C)CC)C(=O)N[C@@H](Cc1ccccc1)C(=O)NCC(=O)N[C@@H](CCCCN)C(=O)N2 [Compound 67] (H-V[Nle]D[Nle]RCSASVECKQKCLKAIGSIFGKC[Nle]NKKCKCYPR-NH2; disulfide 6-27, 12-32, 16-34) | ≤ 0.15 nM |
| CCCC[C@H](NC(=O)[C@H](CC(=O)O)NC(=O)[C@H](CCCC)NC(=O)[C@@H](N)CO)C(=O)N[C@@H](CCCNC(=N)N)C(=O)N[C@H]1CSSC[C@@H]2NC(=O)[C@H](CCCCN)NC(=O)CNC(=O)[C@H](Cc3ccccc3)NC(=O)[C@H]([C@@H](C)CC)NC(=O)[C@H](CO)NC(=O)CNC(=O)[C@H]([C@@H](C)CC)NC(=O)[C@H](C)NC(=O)[C@H](CCCCN)NC(=O)[C@H](CC(C)C)NC(=O)[C@@H]3CSSC[C@@H](C(=O)N[C@@H](Cc4ccc(O)cc4)C(=O)N4CCC[C@H]4C(=O)N[C@@H](CCCNC(=N)N)C(N)=O)NC(=O)[C@H](CCCCN)NC(=O)[C@H](CSSC[C@H](NC(=O)[C@H](CCC(=O)O)NC(=O)[C@H](C(C)C)NC(=O)[C@H](CC)NC(=O)[C@H](C)NC(=O)[C@H](CO)NC1=O)C(=O)N[C@@H](CCCCN)C(=O)N[C@@H](CCC(N)=O)C(=O)N[C@@H](CCCCN)C(=O)N3)NC(=O)[C@H](CCCCN)NC(=O)[C@H](CCCCN)NC(=O)[C@H](CC(N)=O)NC(=O)[C@H](CCSC)NC2=O [Compound 68] (H-S[Nle]D[Nle]RCSA[Abu]VECKQKCLKAIGSIFGKCMNKKCKCYPR-NH2; disulfide 6-27, 12-32, 16-34) | ≤ 0.3 nM |
| CCCC[C@H](NC(=O)[C@H](CC(=O)O)NC(=O)[C@H](CCCC)NC(=O)[C@@H](N)CO)C(=O)N[C@@H](CCCNC(=N)N)C(=O)N[C@H]1CSSC[C@@H]2NC(=O)[C@H](CCCCN)NC(=O)CNC(=O)[C@H](Cc3ccccc3)NC(=O)[C@H]([C@@H](C)CC)NC(=O)[C@H](CO)NC(=O)CNC(=O)[C@H]([C@@H](C)CC)NC(=O)[C@H](C)NC(=O)[C@H](CCCCN)NC(=O)[C@H](CC(C)C)NC(=O)[C@@H]3CSSC[C@@H](C(=O)N[C@@H](Cc4ccc(N)cc4)C(=O)N4CCC[C@H]4C(=O)N[C@@H](CCCNC(=N)N)C(N)=O)NC(=O)[C@H](CCCCN)NC(=O)[C@H](CSSC[C@H](NC(=O)[C@H](CCC(=O)O)NC(=O)[C@H](C(C)C)NC(=O)[C@H](CO)NC(=O)[C@H](C)NC(=O)[C@H](CO)NC1=O)C(=O)N[C@@H](CCCCN)C(=O)N[C@@H](CCC(N)=O)C(=O)N[C@@H](CCCCN)C(=O)N3)NC(=O)[C@H](CCCCN)NC(=O)[C@H](CCCCN)NC(=O)[C@H](CC(N)=O)NC(=O)[C@H](CCSC)NC2=O [Compound 70] (H-S[Nle]D[Nle]RCSASVECKQKCLKAIGSIFGKCMNKKCKC[Phe(4-NH2)]PR-NH2; disulfide 6-27, 12-32, 16-34) | ≤ 0.15 nM |
| CCCC[C@H](NC(=O)[C@H](CC(=O)O)NC(=O)[C@H](CCCC)NC(=O)[C@@H](N)CO)C(=O)N[C@@H](CCCNC(=N)N)C(=O)N[C@H]1CSSC[C@@H]2NC(=O)[C@H](CCCCN)NC(=O)CNC(=O)[C@H](Cc3ccccc3)NC(=O)[C@H]([C@@H](C)CC)NC(=O)[C@H](CO)NC(=O)CNC(=O)[C@H]([C@@H](C)CC)NC(=O)[C@H](C)NC(=O)[C@H](CCCCN)NC(=O)[C@H](CC(C)C)NC(=O)[C@@H]3CSSC[C@@H](C(=O)N[C@@H](Cc4ccc(O)cc4)C(=O)N4CCC[C@H]4C(=O)N[C@@H](CCCNC(=N)N)C(N)=O)NC(=O)[C@H](CCCCN)NC(=O)[C@H](CSSC[C@H](NC(=O)[C@H](CCC(=O)O)NC(=O)[C@H](C(C)C)NC(=O)[C@H](CO)NC(=O)[C@H](C)NC(=O)[C@H](CO)NC1=O)C(=O)NCC(=O)N[C@@H](CCC(N)=O)C(=O)N[C@@H](CCCCN)C(=O)N3)NC(=O)[C@H](CCCCN)NC(=O)[C@H](CCCCN)NC(=O)[C@H](CC(N)=O)NC(=O)[C@H](CCSC)NC2=O [Compound 71] (H-S[Nle]D[Nle]RCSASVECGQKCLKAIGSIFGKCMNKKCKCYPR-NH2; disulfide 6-27, 12-32, 16-34) | ≤ 0.15 nM |
| CCCC[C@H](NC(=O)[C@H](CC(=O)O)NC(=O)[C@H](CCCC)NC(=O)[C@@H](N)CO)C(=O)N[C@@H](CCCNC(=N)N)C(=O)N[C@H]1CSSC[C@@H]2NC(=O)[C@H](CCCCN)NC(=O)CNC(=O)[C@H](Cc3ccccc3)NC(=O)[C@H]([C@@H](C)CC)NC(=O)[C@H](CO)NC(=O)CNC(=O)[C@H]([C@@H](C)CC)NC(=O)[C@H](C)NC(=O)[C@H](CCCCN)NC(=O)[C@H](CC(C)C)NC(=O)[C@@H]3CSSC[C@@H](C(=O)N[C@@H](Cc4ccc(O)cc4)C(=O)N4CCC[C@H]4C(=O)N[C@@H](CCCNC(=N)N)C(N)=O)NC(=O)[C@H](CCCCN)NC(=O)[C@H](CSSC[C@H](NC(=O)[C@H](CCC(=O)O)NC(=O)[C@H](C(C)C)NC(=O)[C@H](CO)NC(=O)[C@H](C)NC(=O)[C@H](CO)NC1=O)C(=O)N[C@@H](C(C)C)C(=O)N[C@@H](CCC(N)=O)C(=O)N[C@@H](CCCCN)C(=O)N3)NC(=O)[C@H](CCCCN)NC(=O)[C@H](CCCCN)NC(=O)[C@H](CC(N)=O)NC(=O)[C@H](CCSC)NC2=O [Compound 72] (H-S[Nle]D[Nle]RCSASVECVQKCLKAIGSIFGKCMNKKCKCYPR-NH2; disulfide 6-27, 12-32, 16-34) | ≤ 0.3 nM |
